# Laboratory results reported in patent US20210198368A1.
# No constants are given. Whether binding was seen depends on the method and setting. Some binding calls cover weakened binding; strength is not graded here. For part of these data: Tags and fused reporters may be left off the sequences shown.
# T1: human CLL-1 Fc (human) (UniProt Q5QGZ9)
# T1 sequence (looked up): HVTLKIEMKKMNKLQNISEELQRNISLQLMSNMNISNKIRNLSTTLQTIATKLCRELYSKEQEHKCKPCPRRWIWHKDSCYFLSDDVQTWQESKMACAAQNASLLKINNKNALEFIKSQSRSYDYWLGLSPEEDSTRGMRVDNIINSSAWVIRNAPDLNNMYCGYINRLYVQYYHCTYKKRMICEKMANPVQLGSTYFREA
# T2: human CLL-1 (human) (UniProt Q5QGZ9)
# T2 sequence (looked up): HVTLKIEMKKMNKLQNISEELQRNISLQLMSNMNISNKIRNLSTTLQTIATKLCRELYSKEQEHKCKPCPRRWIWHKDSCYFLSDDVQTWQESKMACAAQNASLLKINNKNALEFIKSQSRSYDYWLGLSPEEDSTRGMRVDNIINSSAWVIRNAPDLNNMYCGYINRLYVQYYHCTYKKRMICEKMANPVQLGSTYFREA
# Target: T1, human CLL-1 Fc (human)
# Experiment: SPR (Biacore T200), human CLL-1 Fc captured on an anti-Fc CM5 chip, scFv as analyte
row,binding,Binder
1,binds,CLL-1-13 (scFv) scFv: QVQLVQSGAEVKKSGASVKVSCKASGYPFTGYYIQWVRQAPGQGLEWMGWIDPNSGNTGYAQKFQGRVTMTRNTSISTAYMELSSLRSEDTAVYYCASDSYGYYYGMDVWGQGTLVTVSSGGGGSGGGGSGGGGSGGGGSDIQMTQSPSSLSASVGDRVTFTCRASQGISSALAWYQQKPGKPPKLLIYDASSLESGVPSRFSGSGSGTDFTLTISSLQPEDFATYYCQQFNNYPLTFGGGTKVEIK
2,binds,CLL-1-9 (scFv) scFv: QVQLVQSGAEVKEPGASVKVSCKAPANTFSDHVMHWVRQAPGQRFEWMGYIHAANGGTHYSQKFQDRVTITRDTSANTVYMDLSSLRSEDTAVYYCARGGYNSDAFDIWGQGTMVTVSSGGGGSGGGGSGGGGSGGGGSDIVMTQSPSSVSASVGDRVTITCRASQDISSWLAWYQQKPGKAPKLLIYAASSLQSGVPSRFNGSGSGTDFTLTISSLQPEDFATYYCQQSYSTPLTFGGGTKVEIK
3,binds,CLL-1-10 (scFv) scFv: QVQLVQSGGGLVQPGGSLRLSCAASGFTFSSYSMNWVRQAPGKGLEWVSYISSSSSTIYYADSVKGRFTISRDNAKNSLYLQMNSLRAEDTAVYYCARDLSVRAIDAFDIWGQGTMVTVSSGGGGSGGGGSGGGGSGGGGSDIVLTQSPSSLSASVGDRVTITCQASQDISNYLNWYQQKPGKAPKLLIYDASNLETGVPSRFSGSGSGTDFTFTISSLQPEDFATYYCQQAYSTPFTFGPGTKVEIK

# Target: T2, human CLL-1 (human)
# Experiment: ELISA and/or FACS of phage clones after panning on immobilized CLL-1
row,binding,Binder
1,binds,CLL-1-3 (scFv) scFv: QVQLQESGPGLVKPSETLSLTCTVSGGSISSSSYYWGWIRQPPGKGLEWIGSIYYSGSTYYNPSLKSRVSISVDTSKNQFSLKLKYVTAADTAVYYCATPGTYYDFLSGYYPFYWGQGTLVTVSSGGGGSGGGGSGGGGSDIVMTQSPSSLSASVGDRVTITCRASQGISSYLAWYQQKPGKAPKLLIYAASTLQSGVPSRFSGSGSGTDFTLTISSLQPEDFATYYCQQLNSYPYTFGQGTKLEIK
2,binds,CLL-1-7 (scFv) scFv: EVQLVESGGGLVKPGGSLRLSCAASGFTFSSYSMNWVRQAPGKGLEWVSSISSSSSYIYYADSVKGRFTISRDNAKNSLYLQMNSLRAEDTAVYYCARDPSSSGSYYMEDSYYYGMDVWGQGTTVTVSSGGGGSGGGGSGGGGSNFMLTQPHSVSESPGKTVTISCTGSSGSIASNYVQWYQQRPGSAPTTVIYEDNQRPSGVPDRFSGSIDSSSNSASLTISGLKTEDEADYYCQSYDSSNQVVFGGGTKLTVL
3,binds,CLL-1-4 (scFv) scFv: QVQLVESGGGLVQPGGSLRLSCAASGFTFSSYWMSWVRQAPGKGLEWVANINEDGSAKFYVDSVKGRFTISRDNAKNSLYLQMNSLRAEDTAVYFCARDLRSGRYWGQGTLVTVSSGGGGSGGGGSGGGGSEIVLTQSPGTLSLSPGGRATLSCRASQSISGSFLAWYQQKPGQAPRLLIYGASSRATGIPDRFSGSGSGTDFTLTISRLEPEDFAVYYCQQYGSSPPTFGLGTKLEIK
